Publication PMC6768663
No constants are given. Whether binding was seen depends on the method and setting. In cells and extracts the contact can be indirect. Some binding calls cover weakened binding; strength is not graded here.

Amino acid sequences for entries named in this document (tags omitted).
UniProt Q9EQT3: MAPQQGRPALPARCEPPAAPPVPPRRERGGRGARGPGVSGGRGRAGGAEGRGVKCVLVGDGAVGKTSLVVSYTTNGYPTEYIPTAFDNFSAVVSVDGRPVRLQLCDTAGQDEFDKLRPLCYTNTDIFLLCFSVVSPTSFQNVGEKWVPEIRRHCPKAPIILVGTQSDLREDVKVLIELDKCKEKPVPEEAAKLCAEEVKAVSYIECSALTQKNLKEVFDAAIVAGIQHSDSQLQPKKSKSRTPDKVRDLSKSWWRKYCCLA

Target: MYC-RHOU (mouse) (UniProt Q9EQT3)
Assay: co-IP; primary mouse keratinocytes transfected with empty vector or Myc-Rhou; Pierce IP Lysis Buffer; 500 μg of protein with anti-MYC antibody overnight, Protein A/G agarose; blot with ARHGEF7 antibody

B1: ARHGEF7 (β-PIX) (protein, UniProt Q9ES28 1-862)
chain: MNSAEQTVTWLITLGVLESPKKTISDPEVFLQASLKDGVVLCRLLERLLPGTIEKVYPEPRNESECLSNIREFLRACGASLRLETFDANDLYQGQNFNKVLSSLVTLNKVTADIGLGSDSVCARPSSHRIKSFDSLGSQSSHSRTSKLLQSQYRSLDMTDNTNSQLVVRAKFNFQQTNEDELSFSKGDVIHVTRVEEGGWWEGTHNGRTGWFPSNYVREIKPSEKPVSPKSGTLKSPPKGFDTTAINKSYYNVVLQNILETEHEYSKELQSVLSTYLRPLQTSDKLSSANTSYLMGNLEEISSFQQVLVQSLEECTKSPEAQQRVGGCFLSLMPQMRTLYLAYCANHPSAVSVLTEHSEDLGEFMETKGASSPGILVLTTGLSKPFMRLDKYPTLLKELERHMEDYHPDRQDIQKSMTAFKNLSAQCQEVRKRKELELQILTEPIRSWEGDDIKTLGSVTYMSQVTIQCAGSEEKNERYLLLFPNLLLMLSASPRMSGFIYQGKLPTTGMTITKLEDSENHRNAFEISGSMIERILVSCTSQQDLHEWVEHLQKQTKVTSVSNPTIKPHSVPSHTLPSHPLTPSSKHADSKPVALTPAYHTLPHPSHHGTPHTTISWGPLEPPKTPKPWSLSCLRPAPPLRPSAALCYKEDLSKSPKTMKKLLPKRKPERKPSDEEFAVRKSTAALEEDAQILKVIEAYCTSAKTRQTLNSTWQGTDLMHNHVLADDDQSSLDSLGRRSSLSRLEPSDLSEDSEYDSIWTAHSYRMGSASRSRKESAPQVLLPEEEKIIVEETKSNGQTVIEEKSLVDTVYALKDEVQELRQDNKKMKKSLEEEQRARKDLEKLVRKVLKNMNDPAWDETNL
**Q.** Which binding does the source give for B1 here?
**A.** binds
